These results are taken from publication PMC12136456.

The chains behind the UniProt entries cited, without tags or fusion partners.
UniProt P26599: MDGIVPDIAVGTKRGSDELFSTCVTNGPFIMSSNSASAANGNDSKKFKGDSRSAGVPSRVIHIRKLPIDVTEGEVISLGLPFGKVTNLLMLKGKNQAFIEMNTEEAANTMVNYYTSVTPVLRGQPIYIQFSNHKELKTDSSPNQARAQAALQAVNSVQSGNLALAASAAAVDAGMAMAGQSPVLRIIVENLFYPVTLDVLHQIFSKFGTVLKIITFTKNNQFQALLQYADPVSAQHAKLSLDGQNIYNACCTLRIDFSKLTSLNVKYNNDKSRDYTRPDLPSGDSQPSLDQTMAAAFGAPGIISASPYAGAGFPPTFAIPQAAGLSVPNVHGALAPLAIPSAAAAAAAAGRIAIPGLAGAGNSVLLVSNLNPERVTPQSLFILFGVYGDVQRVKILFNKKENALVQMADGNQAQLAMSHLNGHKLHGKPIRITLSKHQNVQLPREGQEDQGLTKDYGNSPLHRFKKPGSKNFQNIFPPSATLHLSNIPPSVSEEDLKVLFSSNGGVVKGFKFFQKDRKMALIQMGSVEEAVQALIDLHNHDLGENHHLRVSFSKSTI
UniProt Q9UKA9: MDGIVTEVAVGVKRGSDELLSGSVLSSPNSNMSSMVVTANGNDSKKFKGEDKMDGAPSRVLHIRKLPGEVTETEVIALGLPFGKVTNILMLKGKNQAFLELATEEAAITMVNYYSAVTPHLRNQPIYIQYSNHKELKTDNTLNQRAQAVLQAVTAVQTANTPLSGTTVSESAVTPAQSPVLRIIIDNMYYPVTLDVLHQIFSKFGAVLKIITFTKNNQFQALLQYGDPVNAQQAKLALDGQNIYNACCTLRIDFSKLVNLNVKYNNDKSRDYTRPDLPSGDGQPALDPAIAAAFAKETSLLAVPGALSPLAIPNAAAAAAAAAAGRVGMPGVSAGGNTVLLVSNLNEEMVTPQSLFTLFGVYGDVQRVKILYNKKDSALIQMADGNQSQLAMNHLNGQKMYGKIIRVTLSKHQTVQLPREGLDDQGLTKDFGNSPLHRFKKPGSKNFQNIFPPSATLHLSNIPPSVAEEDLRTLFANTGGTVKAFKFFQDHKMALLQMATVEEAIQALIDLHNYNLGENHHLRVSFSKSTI

Experiment in all cases: affinity purification with mass spectrometry; 48 ug His-tagged PTBP in a 200 ul splicing reaction (2.2 mM MgCl2, 0.4 mM ATP, 20 mM creatine phosphate) with WERI retinoblastoma nuclear extract, 30 C 90 min; HisPur Ni-NTA magnetic resin overnight at 4 C; washes with 150 mM NaCl, 30 mM imidazole; eluted with 300 mM imidazole; proteins of the Buffer DG and WERI only controls removed from the lists; the extract includes RNA transcripts, so a protein may be bound directly or through RNA; only the target purified

Assay [1] deals with Polypyrimidine Tract Binding Protein 1, His-tagged (UniProt P26599).
For assay [2] the target is unchanged. This is another data set of the same source.
Assay [3] concerns the target Polypyrimidine Tract Binding Protein 2, His-tagged (UniProt Q9UKA9).

Where two headings read alike, the source gives them in different places. These are yes or no findings as the source states them, for the method shown. Binding seen in cells or lysates may run through a third protein. These calls come from enrichment with a bait or labelling near it, and not all partners need be listed.

B1: MEIS2 (protein, UniProt O14770 1-477)
chain: MAQRYDELPHYGGMDGVGVPASMYGDPHAPRPIPPVHHLNHGPPLHATQHYGAHAPHPNVMPASMGSAVNDALKRDKDAIYGHPLFPLLALVFEKCELATCTPREPGVAGGDVCSSDSFNEDIAVFAKQVRAEKPLFSSNPELDNLMIQAIQVLRFHLLELEKVHELCDNFCHRYISCLKGKMPIDLVIDERDGSSKSDHEELSGSSTNLADHNPSSWRDHDDATSTHSAGTPGPSSGGHASQSGDNSSEQGDGLDNSVASPGTGDDDDPDKDKKRQKKRGIFPKVATNIMRAWLFQHLTHPYPSEEQKKQLAQDTGLTILQVNNWFINARRRIVQPMIDQSNRAGFLLDPSVSQGAAYSPEGQPMGSFVLDGQQHMGIRPAGLQSMPGDYVSQGGPMGMSMAQPSYTPPQMTPHPTQLRHGPPMHSYLPSHPHHPAMMMHGGPPTHPGMTMSAQSPTMLNSVDPNVGGQVMDIHAQ
For B1, in assay [1], the binding result is reported as “binds”.

B2: LARP7 (protein, UniProt Q4G0J3 1-582)
chain: METESGNQEKVMEEESTEKKKEVEKKKRSRVKQVLADIAKQVDFWFGDANLHKDRFLREQIEKSRDGYVDISLLVSFNKMKKLTTDGKLIARALRSSAVVELDLEGTRIRRKKPLGERPKDEDERTVYVELLPKNVNHSWIERVFGKCGNVVYISIPHYKSTGDPKGFAFVEFETKEQAAKAIEFLNNPPEEAPRKPGIFPKTVKNKPIPALRVVEEKKKKKKKKGRMKKEDNIQAKEENMDTSNTSISKMKRSRPTSEGSDIESTEPQKQCSKKKKKRDRVEASSLPEVRTGKRKRSSSEDAESLAPRSKVKKIIQKDIIKEASEASKENRDIEISTEEEKDTGDLKDSSLLKTKRKHKKKHKERHKMGEEVIPLRVLSKSEWMDLKKEYLALQKASMASLKKTISQIKSESEMETDSGVPQNTGMKNEKTANREECRTQEKVNATGPQFVSGVIVKIISTEPLPGRKQVRDTLAAISEVLYVDLLEGDTECHARFKTPEDAQAVINAYTEINKKHCWKLEILSGDHEQRYWQKILVDRQAKLNQPREKKRGTEKLITKAEKIRLAKTQQASKHIRFSEYD
With B2, the binding result in assay [2] and in assay [3] was “binds” throughout.

B3: NONO (protein, UniProt Q15233 1-471)
chain: MQSNKTFNLEKQNHTPRKHHQHHHQQQHHQQQQQQPPPPPIPANGQQASSQNEGLTIDLKNFRKPGEKTFTQRSRLFVGNLPPDITEEEMRKLFEKYGKAGEVFIHKDKGFGFIRLETRTLAEIAKVELDNMPLRGKQLRVRFACHSASLTVRNLPQYVSNELLEEAFSVFGQVERAVVIVDDRGRPSGKGIVEFSGKPAARKALDRCSEGSFLLTTFPRPVTVEPMDQLDDEEGLPEKLVIKNQQFHKEREQPPRFAQPGSFEYEYAMRWKALIEMEKQQQDQVDRNIKEAREKLEMEMEAARHEHQVMLMRQDLMRRQEELRRMEELHNQEVQKRKQLELRQEEERRRREEEMRRQQEEMMRRQQEGFKGTFPDAREQEIRMGQMAMGGAMGINNRGAMPPAPVPAGTPAPPGPATMMPDGTLGLTPPTTERFGQAATMEGIGAIGGTPPAFNRAAPGAEFAPNKRRRY
For the molecule B3, the binding entry in assay [1] is reported as “binds”.

B4: elongation factor EEF1B2 (protein, UniProt P24534 1-225)
chain: MGFGDLKSPAGLQVLNDYLADKSYIEGYVPSQADVAVFEAVSSPPPADLCHALRWYNHIKSYEKEKASLPGVKKALGKYGPADVEDTTGSGATDSKDDDDIDLFGSDDEEESEEAKRLREERLAQYESKKAKKPALVAKSSILLDVKPWDDETDMAKLEECVRSIQADGLVWGSSKLVPVGYGIKKLQIQCVVEDDKVGTDMLEEQITAFEDYVQSMDVAAFNKI
B4: the binding result in assay [2] was “binds”.

B5: FAM50A (protein, UniProt Q14320 1-339)
chain: MAQYKGAASEAGRAMHLMKKREKQREQMEQMKQRIAEENIMKSNIDKKFSAHYDAVEAELKSSTVGLVTLNDMKAKQEALVKEREKQLAKKEQSKELQMKLEKLREKERKKEAKRKISSLSFTLEEEEEGGEEEEEAAMYEEEMEREEITTKKRKLGKNPDVDTSFLPDRDREEEENRLREELRQEWEAKQEKIKSEEIEITFSYWDGSGHRRTVKMRKGNTMQQFLQKALEILRKDFSELRSAGVEQLMYIKEDLIIPHHHSFYDFIVTKARGKSGPLFNFDVHDDVRLLSDATVEKDESHAGKVVLRSWYEKNKHIFPASRWEPYDPEKKWDKYTIR
As for B5, the binding entry in assay [2] and in assay [3] was “binds” in each case.

B6: CPSF7 (protein, UniProt Q8N684 1-471)
chain: MSEGVDLIDIYADEEFNQDPEFNNTDQIDLYDDVLTATSQPSDDRSSSTEPPPPVRQEPSPKPNNKTPAILYTYSGLRNRRAAVYVGSFSWWTTDQQLIQVIRSIGVYDVVELKFAENRANGQSKGYAEVVVASENSVHKLLELLPGKVLNGEKVDVRPATRQNLSQFEAQARKRECVRVPRGGIPPRAHSRDSSDSADGRATPSENLVPSSARVDKPPSVLPYFNRPPSALPLMGLPPPPIPPPPPLSSSFGVPPPPPGIHYQHLMPPPPRLPPHLAVPPPGAIPPALHLNPAFFPPPNATVGPPPDTYMKASAPYNHHGSRDSGPPPSTVSEAEFEDIMKRNRAISSSAISKAVSGASAGDYSDAIETLLTAIAVIKQSRVANDERCRVLISSLKDCLHGIEAKSYSVGASGSSSRKRHRSRERSPSRSRESSRRHRDLLHNEDRHDDYFQERNREHERHRDRERDRHH
B6: the binding entry in assay [2] and in assay [3] was “binds” in each case.

B7: CSTF2T (protein, UniProt Q9H0L4 1-616)
chain: MSSLAVRDPAMDRSLRSVFVGNIPYEATEEQLKDIFSEVGSVVSFRLVYDRETGKPKGYGFCEYQDQETALSAMRNLNGREFSGRALRVDNAASEKNKEELKSLGPAAPIIDSPYGDPIDPEDAPESITRAVASLPPEQMFELMKQMKLCVQNSHQEARNMLLQNPQLAYALLQAQVVMRIMDPEIALKILHRKIHVTPLIPGKSQSVSVSGPGPGPGPGLCPGPNVLLNQQNPPAPQPQHLARRPVKDIPPLMQTPIQGGIPAPGPIPAAVPGAGPGSLTPGGAMQPQLGMPGVGPVPLERGQVQMSDPRAPIPRGPVTPGGLPPRGLLGDAPNDPRGGTLLSVTGEVEPRGYLGPPHQGPPMHHASGHDTRGPSSHEMRGGPLGDPRLLIGEPRGPMIDQRGLPMDGRGGRDSRAMETRAMETEVLETRVMERRGMETCAMETRGMEARGMDARGLEMRGPVPSSRGPMTGGIQGPGPINIGAGGPPQGPRQVPGISGVGNPGAGMQGTGIQGTGMQGAGIQGGGMQGAGIQGVSIQGGGIQGGGIQGASKQGGSQPSSFSPGQSQVTPQDQEKAALIMQVLQLTADQIAMLPPEQRQSILILKEQIQKSTGAS
On to B7, for which the binding result in assay [1] is listed as “binds”.

B8: TBL1Y (protein, UniProt Q9BQ87 1-522)
chain: MSITSDEVNFLVYRYLQESGFSHSAFTFGIESHISQSNINGTLVPPSALISILQKGLQYVEAEISINKDGTVFDSRPIESLSLIVAVIPDVVQMRQQAFGEKLTQQQASAAATEASAMAKAATMTPAAISQQNPPKNREATVNGEENGAHEINNHSKPMEIDGDVEIPPNKATVLRGHESEVFICAWNPVSDLLASGSGDSTARIWNLNENSNGGSTQLVLRHCIREGGHDVPSNKDVTSLDWNSDGTLLAMGSYDGFARIWTENGNLASTLGQHKGPIFALKWNKKGNYVLSAGVDKTTIIWDAHTGEAKQQFPFHSAPALDVDWQNNMTFASCSTDMCIHVCRLGCDHPVKTFQGHTNEVNAIKWDPSGMLLASCSDDMTLKIWSMKQDACVHDLQAHSKEIYTIKWSPTGPATSNPNSSIMLASASFDSTVRLWDVEQGVCTHTLMKHQEPVYSVAFSPDGKYLASGSFDKYVHIWNTQSGSLVHSYQGTGGIFEVCWNARGDKVGASASDGSVCVLDL
For the molecule B8, in assay [2], the binding result is reported as “binds”.

B9: Tudor- domain containing protein TDRD5 (protein, UniProt Q8NAT2 1-981)
chain: MSEQERIQECLRKEIRSLLISTKDGLSPQELEKEYLLMVGNHLPLRILGYRSTMELVLDMPDVVRVCPGAGGTVILKAIPDESTKGIASLVAKQRSSHKLRNSMHKGRPSIYSGPRSHRRVPYRGRVAPILPAVVKSELKDLLALSPVLLSDFEKAFAKRFGRSFQYMQYGFLSMFEVLNAASDVISVEQTRAGSLLMLKKSVTEEKPRGCPAGKIFTQPFRMKQGSYSTGFPVAKPCFSQPTSNMEPPKQIMSMEKTSKLNVVETSRLNHTEKLNQLENTFKSVIAQIGPGGTISSELKHKIKFVVSKFPEGLFISKLLGEYEVIFKEQLSPKKLGFLNVTELVGALSDILHVEFRKGHQDLLVFDADKKPLPPVQSDKKIEAKACVSSPPRNSLSTAAVKETVWNCPSKKQKEPQQKICKKPNLVVKPLQLQVETNKSELNLAMANHDIPPDAVPNKKLCRLPPLDTSSLIGVFVEYIISPSQFYIRIYSRDSSELLEDMMIEMRRCYSNQLVSDRYVMPECFIQPGHLCCVRISEDKWWYRVIIHRVLEKQEVEVFYPDFGNIGIVQKSSLRFLKCCYTKLPAQAIPCSLAWVRPVEEHWTSKAILQFQKLCGLKPLVGVVDEYVDGILNIFLCDTSSNEDVYFHHVLRTEGHAIVCRENISSKGFSELNPLALYTTSSGGPEDIVLTELGYPSQQHYFNEDRKISPQSKESELRILDEIPTGMPCLESVTIGDDIWDENWLPLQAKMGKGGDAASHLFTASLGGKNQYSSCKEMPQKDWCFSTPKDTWDDSWQPSGLVNGTKVEVHKPEVLGAQEKNTGTNRTQKQLDINGSSDSSTLPKLEEFCTSLTQSEQSADGSQSEPNNSQTQPKQIQLSTAAPCSTTAVDDSAEKPSGSVESSPEILKNEDFSSSRAITLYKDKRQESVDQLSLILSYECQISQKLYIPRSTATAALGAAARLATSRSLLHWYPSVKRMEA
Regarding B9, the binding entry in assay [2] and in assay [3] was “binds” each time.
